No constants are given. Whether binding was seen depends on the method and setting. Binding seen in cells or lysates may run through a third protein. Some binding calls cover weakened binding; strength is not graded here.

The target in this assay is T1, Ectodysplasin A receptor (EDAR) (human (endogenous in NPC cells)) (UniProt Q9UNE0).
T1 sequence: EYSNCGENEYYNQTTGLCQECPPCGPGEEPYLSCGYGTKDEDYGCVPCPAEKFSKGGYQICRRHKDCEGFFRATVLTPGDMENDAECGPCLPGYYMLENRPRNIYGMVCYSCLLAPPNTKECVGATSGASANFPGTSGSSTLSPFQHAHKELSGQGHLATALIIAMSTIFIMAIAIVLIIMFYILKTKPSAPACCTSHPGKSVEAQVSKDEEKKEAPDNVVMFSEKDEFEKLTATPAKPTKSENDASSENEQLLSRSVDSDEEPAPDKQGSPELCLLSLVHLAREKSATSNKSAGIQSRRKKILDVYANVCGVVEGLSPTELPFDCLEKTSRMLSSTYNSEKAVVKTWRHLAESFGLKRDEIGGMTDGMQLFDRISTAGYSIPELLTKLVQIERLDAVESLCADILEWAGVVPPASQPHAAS
Put plainly: co-IP; precipitation with an anti-EDAR antibody and Protein A+G Agarose from cells treated with 5 µM vinburnine and/or 2 Gy IR for 48 h; western blot for EDARADD and TRAF6. (A western blot detects proteins with antibodies after separation by electrophoresis.)

B1: Ectodysplasin A receptor-associated death domain protein (EDARADD) (protein, UniProt Q8WWZ3 1-215)
chain: MGLRTTKQMGRGTKAPGHQEDHMVKEPVEDTDPSTLSFNMSDKYPIQDTELPKAEECDTITLNCPRNSDMKNQGEENGFPDSTGDPLPEISKDNSCKENCTCSSCLLRAPTISDLLNDQDLLDVIRIKLDPCHPTVKNWRNFASKWGMSYDELCFLEQRPQSPTLEFLLRNSQRTVGQLMELCRLYHRADVEKVLRRWVDEEWPKRERGDPSRHF
On to B1, for which the binding entry is “binds”.

The values above are taken from publication PMC12697895, “Vinburnine Sensitizes Radiotherapy Efficacy in Nasopharyngeal Carcinoma by Triggering Pyroptosis and Immune Responses via Activation of EDAR‐NFκB Pathway” (Advanced Science, 2025).
